{"source": "PubChem BioAssay AID485314", "about": "(National Center for Advancing Translational Sciences (NCATS), 2010)", "note": "Among all 340,000 compounds or so, about 4,500 (1.3%) were called active. This list was built around the results that the source calls inconclusive (neither active nor inactive); the mix of calls is not that of the screen. Calls come from the whole dose curve; as a rule, active = well fitted inhibition curve with a large enough effect; inconclusive = small, poorly fitted or top-dose-only effect, or another doubt; inactive = no such curve, though single readings can be large or run the other way. Where the call is inconclusive, the potency comes from a doubtful curve fit. % is set by controls: 0 for no effect and ±100 for the full control effect; potency is the fitted concentration of half-maximal effect."}
{"biological_target": "DNA polymerase beta (Homo sapiens) (UniProt P06746)", "experiment": "qHTS Assay for Inhibitors of DNA Polymerase Beta", "details": "Pol beta primer extension/strand displacement, fluorescence kinetic; activity change, negative = inhibition: at 114 µM (top of the series)", "in_short": "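Pol beta (10 nM) was preincubated with compound for 15 min at room temperature. The reaction was then started with 50 nM substrate and read immediately and after a further 10 min at room temperature.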"}
{"smiles": "CC(=O)Nc1sc(NC(=O)c2ccco2)nc1-c1cccs1", "Potency": "inconclusive: 100 µM [inhibitor, single point]"}
{"smiles": "Cc1c(NC(=O)CSc2cccc3cccnc23)c(=O)n(-c2ccccc2)n1C", "Potency": "inconclusive: 6.31 µM [inhibitor, full curve, poor fit]"}
{"smiles": "Nc1ccc(C2(c3ccc(N)cc3)OC(=O)c3ccccc32)cc1", "Potency": "inconclusive: 8.91 µM [inhibitor, full curve, poor fit]"}
{"smiles": "Cc1nc(NC(=O)Nc2ccc(Cl)cc2)sc1C", "Potency": "inconclusive: 15.8 µM [inhibitor, full curve]"}
{"smiles": "CC(C)(C)c1ccc(S(=O)(=O)N2C=CC(C(F)(F)F)=NCC2)cc1", "Potency": "inconclusive: 5.01 µM [inhibitor, full curve, poor fit]"}
{"smiles": "CC(C)(C)c1ccc(OCCCn2ccnc2)cc1", "Potency": "inconclusive: 4.47 µM [inhibitor, single point]"}
{"smiles": "O=C(COc1ccccc1Cl)Nc1ccc2oc(-c3ccccc3F)nc2c1", "Potency": "inconclusive: 100 µM [inhibitor, single point]"}
{"smiles": "CCCOCC(O)CCc1n[nH]c(=S)n1-c1ccccc1", "note": "(centres undefined)", "Potency": "inactive"}
{"smiles": "Cc1ccc(Cn2c(-c3ccccc3)nc3ccccc32)cc1", "Potency": "inactive"}
{"smiles": "CCn1ccc2cc(S(=O)(=O)N3CCCN(C(=O)NCC(C)C)CC3)ccc21", "Potency": "inconclusive: 0.126 µM [inhibitor, full curve, poor fit]"}
{"smiles": "CNC(=O)c1cccnc1Nc1cccc(C(F)(F)F)c1", "Potency": "inconclusive: 89.1 µM [inhibitor, single point]"}
{"smiles": "Cc1ccc(C)c(Cn2c(=O)n(CCCCC(=O)NCc3ccccc3Cl)c(=O)c3ccccc32)c1", "Potency": "inactive"}
{"smiles": "O=C(CCS(=O)(=O)c1ccccc1)N1CCOCC1", "Potency": "inconclusive: 3.16 µM [inhibitor, full curve, poor fit]"}
{"smiles": "CCOc1ccccc1NC(=O)Cn1ccn(-c2ccccc2)c(=O)c1=O", "Potency": "inactive"}
{"smiles": "O=C(N/N=C/c1cccc(O)c1)N/N=C/c1cccc(O)c1", "Potency": "inactive"}
{"smiles": "O=C(COC(=O)c1ccc(S(=O)(=O)NCc2ccco2)cc1)NC1CCCCC1", "Potency": "inconclusive: 0.112 µM [inhibitor, full curve, poor fit]"}
{"smiles": "COCc1nnc(NC(=O)CCc2ccccc2)s1", "Potency": "inconclusive: 89.1 µM [inhibitor, single point]"}
{"smiles": "O=C(N/N=C/c1cc2c(cc1Br)OCO2)c1cc2ccccc2o1", "activity change, negative = inhibition": "inconclusive: -65.9% [inhibitor]"}
{"smiles": "Cc1oc(C)c2c(=O)cc(-c3ccc4c(c3)OCO4)cc(OC(=O)c3ccccc3Br)c12", "Potency": "inconclusive: 39.8 µM [inhibitor, full curve]"}
{"smiles": "O=C(CSc1nnc2c(n1)[nH]c1ccc(F)cc12)OCc1ccccc1", "Potency": "inconclusive: 44.7 µM [inhibitor, partial curve]"}
{"smiles": "Cn1cccc1CNC(=O)Nc1ccc(Cl)c(Cl)c1", "Potency": "inconclusive: 39.8 µM [inhibitor, single point]"}
{"smiles": "COc1cc2ccccc2cc1C(=O)NC(=S)Nc1cccc(C(=O)O)c1", "Potency": "active: 28.2 µM"}
{"smiles": "O=C(CN1C(=O)C2CCCCN2c2ccc(C(=O)N3CCCC3)cc21)NCc1cccc(Cl)c1", "note": "(centres undefined)", "Potency": "inactive"}
{"smiles": "COC(=O)c1sccc1NC(=O)Nc1ccc(F)cc1", "Potency": "inactive"}
{"smiles": "O=C(Nc1nnc(C2CC2)s1)C1Cc2ccccc2CN1S(=O)(=O)c1ccccc1F", "note": "(centres undefined)", "Potency": "inconclusive: 22.4 µM [inhibitor, full curve]"}
{"smiles": "CCCOC(=O)c1ccc(Oc2c(-c3ccc(O)cc3O)n[nH]c2C)cc1", "Potency": "inconclusive: 20 µM [inhibitor, full curve, poor fit]"}
{"smiles": "CCc1cc(/C(Cc2csc(C)n2)=N/O)c(O)cc1O", "Potency": "inconclusive: 39.8 µM [inhibitor, partial curve]"}
{"smiles": "COC(=O)/C(=C/c1ccccc1)NC(=O)c1ccco1", "Potency": "inconclusive: 0.631 µM [inhibitor, full curve]"}
{"smiles": "CCOC(=O)COc1ccc2c(C#N)c3ccccn3c2c1", "Potency": "inconclusive: 79.4 µM [inhibitor, single point]"}
{"smiles": "Cc1ccc(NC(=O)Nc2nnc(N3CCCC3)s2)c(C)c1", "Potency": "inactive"}
{"smiles": "O=C(Nc1ccccc1)Nc1ccc(Oc2ncnc3cc(Cl)ccc23)nc1", "Potency": "inconclusive: 1.41 µM [inhibitor, partial curve, poor fit]"}
{"smiles": "O=C(Cn1c(=O)oc2cc(S(=O)(=O)N3CCCC3)ccc21)N1CCN(c2ccccc2)CC1", "Potency": "inconclusive: 39.8 µM [inhibitor, single point]"}
{"smiles": "CCOC(=O)NNc1ccc2nonc2c1[N+](=O)[O-]", "Potency": "active: 44.7 µM"}
{"smiles": "CCN(CC)S(=O)(=O)c1ccc2c(c1)c(=O)c(C(=O)NCc1ccccc1)cn2C", "Potency": "inconclusive: 89.1 µM [inhibitor, single point]"}
{"smiles": "Cc1[nH]c2ccccc2c1/C=N/Nc1cccc(C(=O)O)c1", "Potency": "inconclusive: 89.1 µM [inhibitor, single point]"}
{"smiles": "Cc1ccc(C(C)C)c(OCC(=O)Nc2ccc(S(=O)(=O)Nc3onc(C)c3C)cc2)c1", "activity change, negative = inhibition": "inconclusive: -95.9% [inhibitor]"}
{"smiles": "CCc1ccc(N=C2NC(=O)/C(=C/c3ccc(OCC(=O)O)c(OC)c3)S2)cc1", "Potency": "active: 20 µM"}
{"smiles": "Cc1ccccc1SCc1noc(C(=O)NC(C)C)c1C(=O)O", "Potency": "inactive"}
{"smiles": "c1ccc2c(c1)CCN(c1nc3ccccc3n3cnnc13)C2", "Potency": "inconclusive: 20 µM [inhibitor, single point]"}
{"smiles": "CN(Cc1c(F)cccc1Cl)c1nnnn1-c1ccccc1", "Potency": "inconclusive: 89.1 µM [inhibitor, single point]"}
{"smiles": "Cc1ccc(CCNC(c2ccc(F)cc2)c2nnc(-c3ccccc3Cl)o2)cc1", "note": "(centres undefined)", "Potency": "inconclusive: 89.1 µM [inhibitor, single point]"}
{"smiles": "CCc1ccc(/C=N/Nc2ncnc3nc[nH]c23)cc1", "activity change, negative = inhibition": "inconclusive: -30.5% [inhibitor]"}
{"smiles": "COc1cccc(N2CCN(S(=O)(=O)c3cn(C)c(C)n3)CC2)c1", "Potency": "inactive"}
{"smiles": "Cc1cc(C)cc(N(CC(=O)NCCSCc2ccco2)S(C)(=O)=O)c1", "Potency": "inactive"}
{"smiles": "O=C(CCc1nc2ccccc2s1)Nc1cccnc1", "Potency": "inconclusive: 22.4 µM [inhibitor, full curve]"}
{"smiles": "O=C1OC(c2cccs2)=N/C1=C/c1ccc(-c2cccc(C(=O)O)c2)o1", "Potency": "active: 3.55 µM"}
{"smiles": "Oc1[nH]c2ccccc2c1C=Nc1ccc2c(c1)OCCO2", "Potency": "inconclusive: 0.794 µM [inhibitor, full curve, poor fit]"}
{"smiles": "COc1ccc(-n2nc3c(N4CCCC(C(=O)NCc5ccc(C)cc5)C4)nnc(C)c3c2C)cc1", "note": "(centres undefined)", "Potency": "active: 15.8 µM"}
{"smiles": "Cc1nc(-c2ccccc2)sc1C(=O)Nc1ccc(S(N)(=O)=O)cc1", "Potency": "inconclusive: 44.7 µM [inhibitor, partial curve, poor fit]"}
{"smiles": "CCn1c(C)nc2cc(C(=O)N/N=C/c3cccc(OC)c3O)ccc21", "Potency": "inconclusive: 10 µM [inhibitor, partial curve, poor fit]"}
{"smiles": "O=C(Nc1cccnc1)c1cc(-c2cc(Cl)ccc2O)n[nH]1", "activity change, negative = inhibition": "inconclusive: -48.9% [inhibitor]"}
{"smiles": "CC1(c2nnc(-c3ccccc3)o2)CC(c2cccnc2)=NO1", "note": "(centres undefined)", "Potency": "inconclusive: 89.1 µM [inhibitor, single point]"}
{"smiles": "CCn1c(C(=O)N2CCC(C(=O)N3CCN(c4cc(C)ccc4C)CC3)CC2)cc2sccc21", "Potency": "inconclusive: 89.1 µM [inhibitor, single point]"}
{"smiles": "COc1ccc(CNC(=O)c2ccc3nc(CCc4ccccc4)oc3c2)cc1OC", "Potency": "inactive"}
{"smiles": "Cc1ccc(S(=O)(=O)N(C)CCCC(=O)Nc2ccc(F)cc2)cc1", "Potency": "inconclusive: 100 µM [inhibitor, single point]"}
{"smiles": "C=CCOc1ccc(Br)cc1/C=C1/SC(=Nc2ccc(C(=O)O)cc2)NC1=O", "Potency": "inconclusive: 1.26 µM [inhibitor, full curve, poor fit]"}
{"smiles": "Cn1cccc1CC(=O)N/N=C/C=C/c1ccco1", "Potency": "active: 25.1 µM"}
{"smiles": "CSc1nc(C)c2c(n1)N(c1ccc(O)cc1)CC2", "Potency": "inconclusive: 25.1 µM [inhibitor, full curve]"}
{"smiles": "Cc1cccc(-n2cc(CN(C)Cc3nccn3C)c(-c3cccc(F)c3)n2)c1", "Potency": "inconclusive: 28.2 µM [inhibitor, single point]"}
{"smiles": "COc1ccc(C(=O)Nc2cccc(-c3ccc4nncn4n3)c2)cc1", "Potency": "inconclusive: 11.2 µM [inhibitor, partial curve]"}
{"smiles": "CCN(CC)S(=O)(=O)c1ccc(S(=O)(=O)N(CC(=O)Nc2ccccc2)Cc2ccco2)cc1", "Potency": "inconclusive: 1.58 µM [inhibitor, full curve]"}
{"smiles": "NC(=S)Nc1nc2ccccc2[nH]c1=O", "Potency": "inconclusive: 44.7 µM [inhibitor, partial curve]"}
{"smiles": "CCC(=O)N1CCc2cc(Br)cc(S(=O)(=O)N3CCC(C(=O)Nc4ccccc4CC)CC3)c21", "Potency": "inactive"}
{"smiles": "Cc1nc(-c2ccccc2)sc1-c1ccc(SCC(=O)Nc2cccc(C(F)(F)F)c2)nn1", "Potency": "inactive"}
{"smiles": "COc1ccc2nc(NC(=O)Nc3ccccc3)sc2c1", "Potency": "inconclusive: 22.4 µM [inhibitor, single point]"}
{"smiles": "CCCCN1C(=O)c2[nH]nc(-c3ccccc3O)c2C1c1ccc(C(C)(C)C)cc1", "note": "(centres undefined)", "Potency": "inconclusive: 15.8 µM [inhibitor, partial curve, poor fit]"}
{"smiles": "CCCn1c2ccccc2c2cnn(CC(=O)NCc3ccccc3Cl)c(=O)c21", "Potency": "inconclusive: 11.2 µM [inhibitor, partial curve, poor fit]"}
{"smiles": "CCN(CC)C(=O)CSc1nc2c(sc(=S)n2-c2ccccc2)c(=O)n1Cc1ccco1", "Potency": "inconclusive: 35.5 µM [inhibitor, partial curve]"}
{"smiles": "CC(=O)Nc1nc2n(n1)C(c1ccc(F)cc1)C=C(c1ccccc1)N2", "note": "(centres undefined)", "Potency": "inconclusive: 31.6 µM [inhibitor, single point]"}
